In paper PMC12215574:
These are yes or no findings as the source states them, for the method shown. In cells and extracts the contact can be indirect. Some results given as binding are weak or reduced against the parent protein; the word gives no strength.

Chains of the proteins cited; added tags and fusions are not shown.
UniProt P01106: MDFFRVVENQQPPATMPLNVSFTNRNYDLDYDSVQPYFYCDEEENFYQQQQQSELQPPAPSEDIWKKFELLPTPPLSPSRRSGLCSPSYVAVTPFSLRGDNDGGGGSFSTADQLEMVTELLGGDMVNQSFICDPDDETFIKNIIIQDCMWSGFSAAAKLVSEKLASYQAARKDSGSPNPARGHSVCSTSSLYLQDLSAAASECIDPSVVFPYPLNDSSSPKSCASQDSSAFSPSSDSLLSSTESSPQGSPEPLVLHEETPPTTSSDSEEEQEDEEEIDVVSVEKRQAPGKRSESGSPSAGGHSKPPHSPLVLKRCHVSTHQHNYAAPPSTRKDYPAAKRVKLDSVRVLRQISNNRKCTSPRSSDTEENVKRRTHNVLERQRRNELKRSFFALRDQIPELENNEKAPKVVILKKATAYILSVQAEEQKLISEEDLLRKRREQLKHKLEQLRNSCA
UniProt Q92993: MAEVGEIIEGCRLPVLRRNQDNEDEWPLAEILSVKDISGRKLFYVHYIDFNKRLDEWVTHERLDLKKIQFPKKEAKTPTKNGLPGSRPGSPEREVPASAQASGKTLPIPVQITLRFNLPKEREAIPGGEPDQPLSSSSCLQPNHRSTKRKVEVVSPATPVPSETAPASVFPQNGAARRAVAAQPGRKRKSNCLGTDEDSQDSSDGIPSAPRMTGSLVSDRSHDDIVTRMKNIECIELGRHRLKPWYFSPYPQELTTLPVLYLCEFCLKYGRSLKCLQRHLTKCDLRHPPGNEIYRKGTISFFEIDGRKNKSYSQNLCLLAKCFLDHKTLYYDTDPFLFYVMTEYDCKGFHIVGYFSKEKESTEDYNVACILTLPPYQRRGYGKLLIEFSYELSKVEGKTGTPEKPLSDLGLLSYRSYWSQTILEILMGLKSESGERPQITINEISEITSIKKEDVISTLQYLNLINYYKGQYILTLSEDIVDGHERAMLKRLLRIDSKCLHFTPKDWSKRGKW

Target: MYC (human (endogenous in MDA-MB-231)) (UniProt P01106)
Assay: co-IP; MDA-MB-231 lysate (IP lysis buffer, Pierce Classic Magnetic IP/Co-IP Kit) mixed at 4°C overnight with magnetic beads carrying anti-MYC, anti-TIP60 or IgG; eluate analysed by western blotting

Substance: TIP60 histone acetyltransferase (from UniProt Q92993 1-513) (enzyme)
- binding: binds
